The results in this text go back to paper PMC10036336.

The assay has as its target T1, CD47 in CT-26 cells (mouse (endogenous in CT-26)) (UniProt Q61735).
T1 sequence: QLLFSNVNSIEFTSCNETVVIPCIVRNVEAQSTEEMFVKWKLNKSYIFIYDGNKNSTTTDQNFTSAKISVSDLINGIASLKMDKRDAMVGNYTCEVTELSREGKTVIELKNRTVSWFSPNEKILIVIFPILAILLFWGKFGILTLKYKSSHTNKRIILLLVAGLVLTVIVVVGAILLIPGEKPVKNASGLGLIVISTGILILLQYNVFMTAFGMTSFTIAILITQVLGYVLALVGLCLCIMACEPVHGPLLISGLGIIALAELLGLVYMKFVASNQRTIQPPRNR
Briefly: competition binding assay on cells (fluorescence of unbound labelled antibody in the supernatant); CT-26 cells co-incubated with Cy5.5-labeled anti-CD47 antibody (20 ng/mL) and three-fold dilutions of bacterial lysate (8.47 x 10^-5 to 5.00 mg/mL), 2 h at 4 °C.

No constants are given. Whether binding was seen depends on the method and setting. Some results given as binding are weak or reduced against the parent protein; the word gives no strength.

B1: anti-CD47 nanobody (CD47nb) (VHH)
VHH: QVQLVESGGGLVEPGGSLRLSCAASGIIFKINDMGWYRQAPGKRREWVAASTGGDEAIYRDSVKDRFTISRDAKNSVFLQMNSLKPEDTAVYYCTAVISTDRDGTEWRRYWGQGTQVTVSS
As to B1, the binding entry is given as “binds”.
